Experimental data published in PMC7862700.
Only a part is listed here, and it is no random draw. At the low end of the ranking the order means little.

Experiments:
Assay in all cases: DAPPL (digital affinity profiling via proximity ligation, sequencing)
Details in all cases: 10 mM Tris-HCl pH 7.5, 50 mM NaCl, 1 mM DTT, 4% glycerol, room temperature, 30 min; GST-TFs on glutathione beads, 16-mer random dsDNA library, 0.1% …; high values mean tight binding; double strand, one strand shown; scale: fold enrichment (6-mer frequency, TF over GST control)
[1] = biological target: T1, ELK1 (UniProt P19419)
T1 sequence: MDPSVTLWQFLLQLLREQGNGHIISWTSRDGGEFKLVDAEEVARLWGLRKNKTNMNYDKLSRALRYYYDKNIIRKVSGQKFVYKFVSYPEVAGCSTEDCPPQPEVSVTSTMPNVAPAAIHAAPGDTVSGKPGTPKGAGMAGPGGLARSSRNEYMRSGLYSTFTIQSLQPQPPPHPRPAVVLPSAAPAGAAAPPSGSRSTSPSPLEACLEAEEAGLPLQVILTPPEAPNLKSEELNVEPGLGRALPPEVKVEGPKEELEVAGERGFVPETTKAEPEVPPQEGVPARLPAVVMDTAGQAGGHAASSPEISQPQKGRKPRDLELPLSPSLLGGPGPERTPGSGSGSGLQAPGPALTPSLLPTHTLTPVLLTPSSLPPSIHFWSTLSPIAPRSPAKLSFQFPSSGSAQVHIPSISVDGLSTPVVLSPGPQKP

[2] = biological target: T2, ELK3 (UniProt P41970)
T2 sequence: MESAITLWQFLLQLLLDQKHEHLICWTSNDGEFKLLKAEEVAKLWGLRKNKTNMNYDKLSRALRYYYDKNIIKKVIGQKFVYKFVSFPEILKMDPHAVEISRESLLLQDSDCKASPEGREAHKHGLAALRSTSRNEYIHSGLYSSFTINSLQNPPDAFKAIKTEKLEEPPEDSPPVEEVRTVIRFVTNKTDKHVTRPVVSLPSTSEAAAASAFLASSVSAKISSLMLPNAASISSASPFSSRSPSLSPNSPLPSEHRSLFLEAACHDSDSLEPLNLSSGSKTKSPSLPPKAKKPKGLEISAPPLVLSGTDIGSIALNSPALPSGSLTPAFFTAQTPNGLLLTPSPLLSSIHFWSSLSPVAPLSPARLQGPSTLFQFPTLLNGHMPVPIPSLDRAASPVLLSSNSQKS

[3] = biological target: T3, SPIC (UniProt Q8N5J4)
T3 sequence: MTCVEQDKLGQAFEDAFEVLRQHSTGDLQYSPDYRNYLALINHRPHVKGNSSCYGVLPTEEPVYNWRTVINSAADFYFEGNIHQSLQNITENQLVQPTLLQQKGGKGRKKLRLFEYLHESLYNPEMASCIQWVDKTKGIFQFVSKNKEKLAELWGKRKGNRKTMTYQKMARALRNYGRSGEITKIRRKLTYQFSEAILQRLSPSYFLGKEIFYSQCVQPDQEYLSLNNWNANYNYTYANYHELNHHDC

[4] = biological target: T4, ETS2 (UniProt P15036)
T4 sequence: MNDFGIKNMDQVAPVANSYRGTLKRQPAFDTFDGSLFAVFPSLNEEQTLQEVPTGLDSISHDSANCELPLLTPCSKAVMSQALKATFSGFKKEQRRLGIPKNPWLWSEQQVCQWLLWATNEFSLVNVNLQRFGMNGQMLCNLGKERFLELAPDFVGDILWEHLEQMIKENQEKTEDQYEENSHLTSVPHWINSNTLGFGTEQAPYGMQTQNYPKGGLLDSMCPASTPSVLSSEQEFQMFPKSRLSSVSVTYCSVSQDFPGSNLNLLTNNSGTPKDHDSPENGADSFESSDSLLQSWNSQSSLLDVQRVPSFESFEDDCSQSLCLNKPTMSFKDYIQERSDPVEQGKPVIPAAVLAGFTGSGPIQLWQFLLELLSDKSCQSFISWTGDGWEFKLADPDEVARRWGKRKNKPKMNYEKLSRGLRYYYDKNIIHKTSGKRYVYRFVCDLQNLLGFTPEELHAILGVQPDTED

[5] = biological target: T5, ETV3 (UniProt P41162-2)
T5 sequence: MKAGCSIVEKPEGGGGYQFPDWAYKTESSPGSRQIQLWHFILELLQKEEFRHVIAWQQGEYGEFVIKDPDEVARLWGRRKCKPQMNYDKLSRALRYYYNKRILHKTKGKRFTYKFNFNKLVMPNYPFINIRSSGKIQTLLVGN

Sequence	binding signal [1]	binding signal [2]	binding signal [3]	binding signal [4]	binding signal [5]
GGCGAT	0.942	0.678	0.732	0.774	0.9
GAGGAG	0.212	0.26	0.232	0.208	0.217
GCGGAT	0.875	0.857	0.902	0.979	0.976
AGAGTA	0.786	0.772	0.756	0.788	0.801
ACGGAC	0.87	0.861	0.744	0.815	0.9
GTGCAA	0.919	0.965	0.882	0.935	0.967
GCGCAT	0.867	0.89	0.761	0.855	0.882
CAGGGA	0.538	0.455	0.489	0.542	0.486
GTCATC	0.852	0.859	0.87	0.826	0.855
TAGAGG	0.826	0.798	0.903	0.781	0.809
GACATA	0.761	0.947	0.823	0.898	0.862
ACCAGC	0.846	0.874	0.824	0.917	0.867
GCATCG	0.835	0.767	0.842	0.802	0.789
GCACCG	0.762	0.764	0.767	0.731	0.723
GGTCCG	0.722	0.617	0.863	0.804	0.809
AACGTG	0.358	0.359	0.381	0.364	0.382
AGATAC	0.882	0.813	1.05	0.885	0.936
CAAGAC	0.862	0.822	0.853	0.834	0.816
GCGGCG	0.801	0.798	0.788	0.719	0.71
AGGAGT	0.354	0.422	0.352	0.374	0.363
GATTGA	1.01	0.926	0.931	0.982	0.947
CTAGTC	0.759	0.725	0.839	0.8	0.709
GTCGAT	0.687	0.688	0.715	0.662	0.651
AGACAG	0.515	0.496	0.47	0.534	0.49
TCGTAA	0.864	0.928	0.962	0.938	0.972
CGTCGT	0.921	0.717	0.876	0.875	0.971
GACGTA	0.762	0.834	0.746	0.739	0.728
ACGAGA	0.704	0.722	0.615	0.703	0.65

Sequence	binding signal [1]	binding signal [2]	binding signal [3]	binding signal [4]	binding signal [5]
GAACGT	0.38	0.451	0.512	0.425	0.41
GTGGTG	0.896	0.869	0.943	0.907	0.958
CAGGGC	0.807	0.765	0.74	0.736	0.819
AGGTGG	0.579	0.685	0.664	0.609	0.54
AGATCG	0.515	0.394	0.433	0.461	0.476
AGTTGA	0.765	0.767	0.846	0.765	0.776
GTATAG	0.904	0.961	0.921	0.785	0.948
AGTAAG	0.754	0.847	0.882	0.759	0.76
AGCGCG	0.807	0.764	0.94	0.797	0.754
CGTGGA	0.556	0.511	0.562	0.582	0.634
ATGAGT	0.733	0.798	0.859	0.703	0.673
CAGCGG	0.461	0.508	0.478	0.479	0.412
GTGAGA	0.313	0.293	0.253	0.337	0.309
CGGGTG	0.72	0.676	0.704	0.654	0.647
GCGTAC	0.899	0.974	0.9	0.947	0.838
AAGGTG	0.947	0.783	0.928	0.922	0.88
AGGCCT	0.964	1.01	0.943	0.998	0.893
TCGGCC	0.753	0.671	0.664	0.702	0.743
GACAAG	0.754	0.729	0.783	0.77	0.813
TGAGTC	0.207	0.178	0.212	0.196	0.212
CAGGTG	0.611	0.578	0.564	0.545	0.595
GGTAGT	0.725	0.697	0.799	0.734	0.748
GGTGTA	0.902	0.837	0.942	0.9	0.831
GTACCG	0.733	0.692	0.712	0.717	0.722
GCAGGC	0.691	0.763	0.731	0.694	0.666
GGAGTA	0.347	0.346	0.32	0.353	0.35
GTCGCC	0.893	0.881	0.869	0.892	0.904

No new results follow: entries from further up.
Sequence	binding signal [1]	binding signal [2]	binding signal [3]	binding signal [4]	binding signal [5]
AAGGTG	0.947	0.783	0.928	0.922	0.88
AGGCCT	0.964	1.01	0.943	0.998	0.893
TCGGCC	0.753	0.671	0.664	0.702	0.743
